# Drug screen on melanoma cell lines: cell count

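Human melanoma cells were exposed to a pair of drugs for 72 h in 1,536-well plates and read by automated microscopy after fixing and staining. The read-out is cell count (nuclei) in % of the DMSO control; lower values mean stronger growth inhibition or killing. Every drug was used at one fixed concentration, the higher of two screened. The file gives one value for each pair and line, without errors, so small differences may be noise.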
This is part of the screen, not chosen by result.
An entry leaves out what has no value listed here.
A dash means that no value is listed here.

Drug key:
CX-4945: O=C(O)c1ccc2c(c1)nc(Nc1cccc(Cl)c1)c1ccncc12 at 2000 nM
L-779450: Oc1cc(-c2nc(-c3ccccc3)[nH]c2-c2ccncc2)ccc1Cl at 1000 nM
docetaxel: CC(=O)O[C@@]12CO[C@@H]1C[C@H](O)[C@@]1(C)C(=O)[C@H](O)C3=C(C)[C@@H](OC(=O)[C@H](O)[C@@H](NC(=O)OC(C)(C)C)c4ccccc4)C[C@@](O)([C@@H](OC(=O)c4ccccc4)[C@H]21)C3(C)C at 0.5 nM
KU-55933: O=c1cc(-c2cccc3c2Sc2ccccc2S3)oc(N2CCOCC2)c1 at 5000 nM
dorsomorphin: c1cc(-c2cnn3cc(-c4ccc(OCCN5CCCCC5)cc4)cnc23)ccn1 at 2000 nM
FK866: O=C(/C=C/c1cccnc1)NCCCCC1CCN(C(=O)c2ccccc2)CC1 at 50 nM
embelin: CCCCCCCCCCCC1=C(O)C(=O)C=C(O)C1=O at 6000 nM
GW2580: COc1ccc(COc2ccc(Cc3cnc(N)nc3N)cc2OC)cc1 at 5000 nM
RKI-983: C[C@@H](N)c1ccc(C(=O)Nc2ccnc3[nH]ccc23)cc1 at 2000 nM
fingolimod: CCCCCCCCc1ccc(CCC(N)(CO)CO)cc1 at 10000 nM

* FK866 + RKI-983 : WM3619: 104; COLO 800: 53.0; COLO 792: 22.4
* FK866 + embelin : WM3619: 77.8; COLO 800: 34.4; COLO 792: 75.7
* L-779450 + docetaxel : WM3619: 43.8
* dorsomorphin + GW2580 : COLO 800: 87.1; 501mel: 41.3; COLO 792: 86.3; A101D: 68.7; G-361: 24.0
* L-779450 + dorsomorphin : COLO 800: 56.9; 501mel: 35.4; COLO 792: 71.4; A101D: 69.0; G-361: 35.2
* fingolimod + CX-4945 : WM3619: 2.0; COLO 792: 8.3
* FK866 + CX-4945 : WM3619: 74.7; COLO 800: 22.6; COLO 792: 45.3
* L-779450 + RKI-983 : WM3619: 55.3; COLO 800: 136; 501mel: 71.1; COLO 792: 67.0; A101D: 62.1
* embelin + KU-55933 : COLO 800: 71.8; COLO 792: 71.1; A101D: 81.9; G-361: 62.2
* FK866 + KU-55933 : WM3619: 91.6; COLO 800: 24.3; COLO 792: 40.7
* dorsomorphin + fingolimod : COLO 792: 6.5
* GW2580 + CX-4945 : WM3619: 49.6; COLO 792: 75.9
* RKI-983 + docetaxel : WM3619: 59.0; COLO 800: 26.3; COLO 792: 12.9; A101D: 48.8
* GW2580 + KU-55933 : COLO 800: 51.0; 501mel: 73.7; COLO 792: 96.9; A101D: 86.1; G-361: 66.3
* KU-55933 + dorsomorphin : COLO 800: 68.7; 501mel: 65.7; COLO 792: 76.2; A101D: 66.5; G-361: 45.2
* CX-4945 + dorsomorphin : WM3619: 65.0; COLO 800: 70.9; COLO 792: 69.6
* CX-4945 + RKI-983 : WM3619: 67.2; COLO 792: 60.2
* fingolimod + RKI-983 : WM3619: 0.6; COLO 800: 58.4; COLO 792: 2.3; A101D: 11.9
* L-779450 + embelin : COLO 800: 101; 501mel: 130; COLO 792: 95.2; A101D: 74.1; G-361: 64.1
* embelin + GW2580 : COLO 800: 112; 501mel: 83.5; COLO 792: 66.3; A101D: 97.9; G-361: 67.5

Repeated from the top, 2 entries:

Combination	WM3619	COLO 800	501mel	COLO 792	A101D	G-361
FK866 + RKI-983	104	53.0	-	22.4	-	-
FK866 + embelin	77.8	34.4	-	75.7	-	-

Data from the primary screen of doi:10.1371/journal.pone.0140310, rounded.